Results are given in words; binding and its absence hold for the method and conditions named.
Biological target: His-tagged amyloid-β precursor protein (APP)
Assay: ELISA, hybridoma supernatant

binding: no binding
B1: mouse monoclonal antibody 26D3 (antibody, mouse IgG2a, V domains shown)
VH: EVQLQQFGVELVKPGASVKISCKASGYIFTDYNMDWVKQSHGKSLEWIGDINPDYDTTSYNEKFKGKATLTVDKSSSTAYMELRSLTSEDTAVYYCARGGYSGSSYYHPMDYWGQGTSVTVSS
VL: DIVMSQSPSSLAVSVGEKITMSCKSSQSLLYSTNQKNYLAWYQQKPGQSPELLIYWASTRESGVPDRFTGSGSGTDFTLTISNVRAEDLAVYYCQQYFIYPRTFGGGTKLEIK

Source: patent publication US20260265396A1
